No constants are given. Whether binding was seen depends on the method and setting. In cells and extracts the contact can be indirect. Some binding calls cover weakened binding; strength is not graded here.
Experiments:
[1] = target: T1, Caveolin-1 (mouse (endogenous in T-FGM fibroblasts)) (UniProt P49817); experiment: co-IP; T-FGM AhR+/+ cells lysed in 50 mM Tris HCl pH 7.4, 125 mM NaCl, 2 mM DTT, 1% Nonidet P-40; 1 mg total protein immunoprecipitated with anti-Cav-1 or anti-AhR antibody and protein-A/G plus Sepharose overnight at 4°C; immunoblotting for AhR and Cav-1
T1 sequence: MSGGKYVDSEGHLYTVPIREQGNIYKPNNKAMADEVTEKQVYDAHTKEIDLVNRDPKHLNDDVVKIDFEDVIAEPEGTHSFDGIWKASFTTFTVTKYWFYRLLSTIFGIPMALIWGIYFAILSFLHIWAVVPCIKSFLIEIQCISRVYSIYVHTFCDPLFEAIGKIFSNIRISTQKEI

Sequences of proteins named here, by UniProt entry; tags and fusion partners are left off. Residues count along the entry.
UniProt P30561, residues 10-848: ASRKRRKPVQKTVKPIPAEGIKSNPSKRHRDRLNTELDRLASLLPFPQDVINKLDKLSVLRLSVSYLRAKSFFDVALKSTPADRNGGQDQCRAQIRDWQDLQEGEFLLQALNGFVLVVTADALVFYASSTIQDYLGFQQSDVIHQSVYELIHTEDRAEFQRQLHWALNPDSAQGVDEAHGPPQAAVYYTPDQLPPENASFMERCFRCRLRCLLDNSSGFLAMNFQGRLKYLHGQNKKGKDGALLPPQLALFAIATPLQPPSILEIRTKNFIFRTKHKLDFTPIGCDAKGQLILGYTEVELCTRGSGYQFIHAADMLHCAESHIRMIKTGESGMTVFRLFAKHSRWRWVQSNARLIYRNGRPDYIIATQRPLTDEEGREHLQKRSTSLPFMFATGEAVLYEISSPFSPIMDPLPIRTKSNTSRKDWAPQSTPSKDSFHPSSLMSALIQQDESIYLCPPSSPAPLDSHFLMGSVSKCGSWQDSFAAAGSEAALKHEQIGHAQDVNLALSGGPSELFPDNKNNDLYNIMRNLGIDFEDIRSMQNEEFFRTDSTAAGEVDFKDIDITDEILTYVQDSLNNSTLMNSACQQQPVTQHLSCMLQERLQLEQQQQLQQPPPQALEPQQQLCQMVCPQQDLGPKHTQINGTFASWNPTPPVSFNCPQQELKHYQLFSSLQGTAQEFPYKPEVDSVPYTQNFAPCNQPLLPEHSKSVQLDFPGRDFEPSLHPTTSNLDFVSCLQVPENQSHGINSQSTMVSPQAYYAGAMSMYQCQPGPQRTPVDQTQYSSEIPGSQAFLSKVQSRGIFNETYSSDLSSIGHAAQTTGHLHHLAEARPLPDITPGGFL

[2] = target: aryl hydrocarbon Receptor (AhR)/Dioxin receptor (mouse (endogenous in T-FGM fibroblasts)) (UniProt P30561); experiment: as above

aryl hydrocarbon Receptor (AhR)/Dioxin receptor (from UniProt P30561 10-848)
binding [1]: binds

B1: Caveolin-1 (protein, UniProt P49817 1-178)
chain: T1 sequence
binding [2]: binds

— paper PMC4172968
